The other results are listed elsewhere or left out. Residues, ends and D or L forms follow the SMILES beside them. *: point of attachment. Cbz = O=C(OCc1ccccc1)*
What was measured:
Assay in all cases: log2 fold change, soluble protein after heating vs DMSO (PISA); higher = thermal stabilisation; K562 cells, 10 uM, 30 min; active = over 0.2 and 3.5 SD of the protein, either way, in both replicates (recomputed)
IRAK-1-4 Inhibitor I = compound: C1COCCN1CCN2C3=CC=CC=C3N=C2NC(=O)C4=CC(=CC=C4)[N+](=O)[O-] [IRAK-1-4 Inhibitor I]
How it was run: (§1)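 K562 cells at 2×10^6 cells/mL were given 10 μM compound for 30 min. Aliquots then went through 3 min of heating across 48°C-58°C, were pooled, and were extracted in PBS with 0.5% NP-40 at 4°C, and the supernatant after 21,000xg for 90 min was quantified by TMTpro 16plex LC-MS/MS with channel sums equalised. Thermal stability relative to control samples, from duplicates, is given as log2 fold change.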

The chains behind the UniProt entries cited, without tags or fusion partners. Where a name states a change or a piece, a line headed by the entry shows the natural chain unless it says otherwise.
UniProt Q6ZWL3: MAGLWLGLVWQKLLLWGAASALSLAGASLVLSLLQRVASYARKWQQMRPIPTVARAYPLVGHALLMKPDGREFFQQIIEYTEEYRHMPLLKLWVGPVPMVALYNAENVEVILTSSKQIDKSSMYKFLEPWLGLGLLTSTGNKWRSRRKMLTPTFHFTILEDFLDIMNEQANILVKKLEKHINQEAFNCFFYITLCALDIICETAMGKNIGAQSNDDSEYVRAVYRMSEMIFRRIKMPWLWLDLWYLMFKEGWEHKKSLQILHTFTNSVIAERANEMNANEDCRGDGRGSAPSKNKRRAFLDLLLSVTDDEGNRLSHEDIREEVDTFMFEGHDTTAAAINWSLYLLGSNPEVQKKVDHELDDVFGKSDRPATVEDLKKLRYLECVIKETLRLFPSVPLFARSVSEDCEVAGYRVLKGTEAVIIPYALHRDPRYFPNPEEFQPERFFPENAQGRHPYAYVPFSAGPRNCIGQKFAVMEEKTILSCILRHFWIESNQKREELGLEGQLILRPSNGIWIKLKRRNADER
UniProt Q8NA75: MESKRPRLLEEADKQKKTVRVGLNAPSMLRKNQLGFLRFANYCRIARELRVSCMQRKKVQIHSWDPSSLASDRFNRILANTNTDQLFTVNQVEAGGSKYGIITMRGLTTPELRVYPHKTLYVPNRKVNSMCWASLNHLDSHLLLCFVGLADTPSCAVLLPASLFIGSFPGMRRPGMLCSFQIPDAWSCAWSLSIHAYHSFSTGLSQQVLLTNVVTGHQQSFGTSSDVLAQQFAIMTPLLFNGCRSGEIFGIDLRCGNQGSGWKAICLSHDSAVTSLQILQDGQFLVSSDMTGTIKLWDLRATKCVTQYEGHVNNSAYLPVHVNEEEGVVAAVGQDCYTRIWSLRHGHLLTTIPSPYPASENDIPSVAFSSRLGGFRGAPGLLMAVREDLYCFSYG
UniProt P35222, whole entry, looked up: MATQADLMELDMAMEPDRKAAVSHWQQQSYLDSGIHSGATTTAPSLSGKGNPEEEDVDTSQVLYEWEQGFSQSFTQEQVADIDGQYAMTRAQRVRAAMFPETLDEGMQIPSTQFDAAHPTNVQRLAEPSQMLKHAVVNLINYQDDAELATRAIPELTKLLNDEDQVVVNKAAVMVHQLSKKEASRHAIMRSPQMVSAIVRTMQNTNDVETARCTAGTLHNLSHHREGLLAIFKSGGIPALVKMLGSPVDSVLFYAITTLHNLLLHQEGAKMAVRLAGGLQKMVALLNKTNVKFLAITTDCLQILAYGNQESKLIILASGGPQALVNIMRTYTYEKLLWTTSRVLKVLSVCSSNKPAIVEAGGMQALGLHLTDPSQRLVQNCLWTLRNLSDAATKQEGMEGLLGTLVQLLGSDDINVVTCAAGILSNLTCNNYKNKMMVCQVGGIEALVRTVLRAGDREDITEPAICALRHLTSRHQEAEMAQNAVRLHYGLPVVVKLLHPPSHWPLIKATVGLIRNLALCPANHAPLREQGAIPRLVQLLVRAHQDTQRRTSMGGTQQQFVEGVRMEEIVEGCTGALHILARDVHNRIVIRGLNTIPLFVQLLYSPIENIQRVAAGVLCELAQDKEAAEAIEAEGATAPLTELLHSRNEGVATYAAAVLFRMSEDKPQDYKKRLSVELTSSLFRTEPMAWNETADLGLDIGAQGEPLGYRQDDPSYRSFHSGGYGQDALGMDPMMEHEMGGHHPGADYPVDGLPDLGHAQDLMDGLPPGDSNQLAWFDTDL
UniProt O95715: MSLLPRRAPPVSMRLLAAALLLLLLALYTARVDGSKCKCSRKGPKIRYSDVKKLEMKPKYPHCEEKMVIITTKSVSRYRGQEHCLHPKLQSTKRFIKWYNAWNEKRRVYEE
UniProt Q12996: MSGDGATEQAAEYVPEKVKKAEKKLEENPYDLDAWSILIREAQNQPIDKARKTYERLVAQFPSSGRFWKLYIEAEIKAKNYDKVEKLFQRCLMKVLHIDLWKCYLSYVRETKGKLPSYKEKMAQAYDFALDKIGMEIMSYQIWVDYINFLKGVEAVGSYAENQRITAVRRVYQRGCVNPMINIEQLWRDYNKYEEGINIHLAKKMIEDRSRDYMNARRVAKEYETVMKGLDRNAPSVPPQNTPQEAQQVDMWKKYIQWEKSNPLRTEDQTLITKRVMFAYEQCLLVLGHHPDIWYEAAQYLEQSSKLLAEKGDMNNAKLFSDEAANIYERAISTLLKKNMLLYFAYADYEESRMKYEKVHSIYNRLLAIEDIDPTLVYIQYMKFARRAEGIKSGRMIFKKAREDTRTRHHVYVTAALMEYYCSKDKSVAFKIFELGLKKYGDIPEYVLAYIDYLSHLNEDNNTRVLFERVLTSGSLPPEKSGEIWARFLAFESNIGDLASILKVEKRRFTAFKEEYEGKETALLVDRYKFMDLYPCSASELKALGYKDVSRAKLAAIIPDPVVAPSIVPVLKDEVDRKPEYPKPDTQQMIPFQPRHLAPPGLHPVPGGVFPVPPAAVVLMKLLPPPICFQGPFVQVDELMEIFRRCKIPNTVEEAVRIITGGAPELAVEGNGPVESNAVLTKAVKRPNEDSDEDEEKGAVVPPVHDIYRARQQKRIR
UniProt Q86T65: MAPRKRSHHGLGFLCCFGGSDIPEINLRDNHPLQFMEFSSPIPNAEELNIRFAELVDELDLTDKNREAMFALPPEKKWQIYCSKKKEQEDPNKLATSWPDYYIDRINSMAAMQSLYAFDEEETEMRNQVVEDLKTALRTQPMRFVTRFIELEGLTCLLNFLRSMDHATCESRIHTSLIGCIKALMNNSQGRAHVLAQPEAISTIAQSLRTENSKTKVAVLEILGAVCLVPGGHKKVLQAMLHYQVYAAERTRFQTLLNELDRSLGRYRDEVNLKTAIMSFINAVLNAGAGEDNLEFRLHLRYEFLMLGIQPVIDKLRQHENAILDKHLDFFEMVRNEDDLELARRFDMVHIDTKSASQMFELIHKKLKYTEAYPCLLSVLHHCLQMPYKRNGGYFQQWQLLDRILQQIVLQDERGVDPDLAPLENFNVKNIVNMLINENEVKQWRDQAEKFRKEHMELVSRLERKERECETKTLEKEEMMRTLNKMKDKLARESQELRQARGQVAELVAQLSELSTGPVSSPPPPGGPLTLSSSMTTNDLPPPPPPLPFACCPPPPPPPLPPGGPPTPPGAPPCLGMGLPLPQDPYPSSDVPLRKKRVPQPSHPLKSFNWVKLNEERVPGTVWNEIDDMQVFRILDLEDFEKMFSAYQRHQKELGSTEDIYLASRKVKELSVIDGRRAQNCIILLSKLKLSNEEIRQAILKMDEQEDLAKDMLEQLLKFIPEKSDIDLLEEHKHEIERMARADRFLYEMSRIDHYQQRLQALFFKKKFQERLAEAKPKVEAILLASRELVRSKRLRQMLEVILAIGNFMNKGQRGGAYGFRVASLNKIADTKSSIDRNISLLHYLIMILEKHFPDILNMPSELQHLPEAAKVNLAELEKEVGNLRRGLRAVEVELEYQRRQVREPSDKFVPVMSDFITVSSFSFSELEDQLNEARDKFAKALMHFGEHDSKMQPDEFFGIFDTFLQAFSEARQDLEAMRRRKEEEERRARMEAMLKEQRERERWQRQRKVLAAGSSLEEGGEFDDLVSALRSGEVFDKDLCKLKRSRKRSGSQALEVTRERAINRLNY
UniProt Q9UBR2: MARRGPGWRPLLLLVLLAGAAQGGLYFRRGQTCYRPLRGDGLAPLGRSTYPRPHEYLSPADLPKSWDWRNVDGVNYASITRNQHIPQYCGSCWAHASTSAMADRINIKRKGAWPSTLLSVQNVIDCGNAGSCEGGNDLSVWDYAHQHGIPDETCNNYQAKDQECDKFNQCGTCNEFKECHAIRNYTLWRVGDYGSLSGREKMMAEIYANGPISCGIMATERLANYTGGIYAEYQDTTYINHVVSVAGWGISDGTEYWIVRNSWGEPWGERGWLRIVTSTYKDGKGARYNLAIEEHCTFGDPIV
UniProt Q8WUE5: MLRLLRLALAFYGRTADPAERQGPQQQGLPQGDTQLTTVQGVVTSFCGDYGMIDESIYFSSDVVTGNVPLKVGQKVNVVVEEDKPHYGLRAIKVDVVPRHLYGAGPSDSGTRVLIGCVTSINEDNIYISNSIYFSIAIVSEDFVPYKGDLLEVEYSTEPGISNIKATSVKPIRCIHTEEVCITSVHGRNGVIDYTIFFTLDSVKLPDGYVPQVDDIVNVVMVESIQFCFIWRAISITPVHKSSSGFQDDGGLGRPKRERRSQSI
UniProt Q96SQ9: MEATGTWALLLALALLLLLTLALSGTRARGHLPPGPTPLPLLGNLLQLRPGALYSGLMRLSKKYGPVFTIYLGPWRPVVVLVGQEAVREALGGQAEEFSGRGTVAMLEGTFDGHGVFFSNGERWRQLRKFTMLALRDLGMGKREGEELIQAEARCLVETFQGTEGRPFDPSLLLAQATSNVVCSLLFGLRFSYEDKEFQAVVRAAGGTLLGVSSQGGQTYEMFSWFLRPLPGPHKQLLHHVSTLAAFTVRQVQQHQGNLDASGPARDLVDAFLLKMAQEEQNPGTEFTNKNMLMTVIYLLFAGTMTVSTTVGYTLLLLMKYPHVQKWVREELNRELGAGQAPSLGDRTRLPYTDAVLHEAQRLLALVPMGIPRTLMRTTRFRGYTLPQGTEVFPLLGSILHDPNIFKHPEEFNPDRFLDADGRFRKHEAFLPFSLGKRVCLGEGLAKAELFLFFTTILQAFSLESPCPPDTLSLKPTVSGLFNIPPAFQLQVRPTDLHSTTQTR
UniProt Q01459: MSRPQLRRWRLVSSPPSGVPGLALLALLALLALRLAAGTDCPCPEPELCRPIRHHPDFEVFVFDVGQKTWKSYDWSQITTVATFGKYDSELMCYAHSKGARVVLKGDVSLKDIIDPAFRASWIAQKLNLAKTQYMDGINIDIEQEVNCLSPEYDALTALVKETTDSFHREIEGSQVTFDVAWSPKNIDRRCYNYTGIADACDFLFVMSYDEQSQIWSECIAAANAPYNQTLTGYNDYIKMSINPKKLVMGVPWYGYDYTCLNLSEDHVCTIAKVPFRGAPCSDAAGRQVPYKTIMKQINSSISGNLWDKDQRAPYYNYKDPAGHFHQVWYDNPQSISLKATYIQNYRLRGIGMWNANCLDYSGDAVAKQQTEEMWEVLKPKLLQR

[1] = compound: CC(=O)c1cnc2ccc(-c3cc(Cl)c(O)c(Cl)c3)nc2c1N[C@H]1CC[C@H](CN(C)C)CC1
How it was run: as §1

ralimetinib = compound: CC(C)(C)Cn1c(N)nc2ccc(-c3[nH]c(C(C)(C)C)nc3-c3ccc(F)cc3)nc21 [ralimetinib]
How it was run: as §1

[2] = compound: CC(C)(O)CC(=O)NCCn1ccc2ncnc(Nc3ccc(Oc4cccc(C(F)(F)F)c4)c(Cl)c3)c21
How it was run: as §1

[3] = compound: CC(C)C1=C2N=C(C=C(N2N=C1)NCC3=CC=CC=C3)NCCCCCCN
How it was run: as §1

[4] = compound: CC(C)C[C@@H](C=O)NC(=O)[C@H](CC(C)C)NC(=O)[C@H](CC(C)C)NC(=O)OCc1ccccc1
How it was run: as §1

pinometostat = compound: CC(C)N(C[C@H]1O[C@@H](n2cnc3c(N)ncnc32)[C@H](O)[C@@H]1O)[C@H]1C[C@@H](CCc2nc3cc(C(C)(C)C)ccc3[nH]2)C1 [pinometostat]
How it was run: as §1

[5] = compound: CC1=C(C=C(C=C1)NC(=O)C2=CC(=CC=C2)N(C)C)NC(=O)C3=CC=C(C=C3)O
How it was run: as §1

[6] = compound: CC1=NC(=CC=C1)C2=C(N=C(N2)C(C)(C)C)C3=CC4=NC=CN=C4C=C3
How it was run: as §1

Nexturastat A = compound: CCCCN(Cc1ccc(C(=O)NO)cc1)C(=O)Nc1ccccc1 [Nexturastat A]
How it was run: as §1

vemurafenib = compound: CCCS(=O)(=O)Nc1ccc(F)c(C(=O)c2c[nH]c3ncc(-c4ccc(Cl)cc4)cc23)c1F [vemurafenib]
How it was run: as §1

givinostat = compound: CCN(CC)Cc1ccc2cc(COC(=O)Nc3ccc(C(=O)NO)cc3)ccc2c1 [givinostat]
How it was run: as §1

ibrutinib = compound: C=CC(=O)N1CCC[C@@H](n2nc(-c3ccc(Oc4ccccc4)cc3)c3c(N)ncnc32)C1 [ibrutinib]
How it was run: as §1

[7] = compound: CC1=C(C(CC(=O)N1)C2=CC=C(C=C2)C(F)(F)F)C(=O)NC3=C(C=C4C(=C3)C=NN4)F
How it was run: as §1

[8] = compound: CC1=C(C2=C(C=C1)C(=O)C3=CC=CC=C3N2CCCN)C
How it was run: as §1

[9] = compound: CC1=C(C=C(C=C1)NC(=O)C2=CC(=CC=C2)C(C)(C)C#N)NC3=CC4=C(C=C3)N=CN(C4=O)C
How it was run: as §1

[10] = compound: CC1=CC=C(C=C1)SC2=C3C=C(SC3=CN=C2)C(=O)N
How it was run: as §1

[11] = compound: CCCS(=O)(=O)Nc1ccc(F)c(C(=O)c2c[nH]c3ncc(Cl)cc23)c1F
How it was run: as §1

[12] = compound: CCCc1cc(C)[nH]c(=O)c1CNC(=O)c1cc(-c2ccnc(N3CCN(C)CC3)c2)cc2c1cnn2C(C)C
How it was run: as §1

barasertib = compound: CCN(CCCOc1ccc2c(Nc3cc(CC(=O)Nc4cccc(F)c4)[nH]n3)ncnc2c1)CCOP(=O)(O)O [barasertib]
How it was run: as §1

Target	log2 fold change (IRAK-1-4 Inhibitor I)	log2 fold change [1]	log2 fold change (ralimetinib)	log2 fold change [2]	log2 fold change [3]	log2 fold change [4]	log2 fold change (pinometostat)	log2 fold change [5]	log2 fold change [6]	log2 fold change (Nexturastat A)	log2 fold change (vemurafenib)	log2 fold change (givinostat)	log2 fold change (ibrutinib)	log2 fold change [7]	log2 fold change [8]	log2 fold change [9]	log2 fold change [10]	log2 fold change [11]	log2 fold change [12]	log2 fold change (barasertib)
CYP4V2 (UniProt Q6ZWL3)	inactive: 0.037	inactive: -0.075	inactive: 0.026	inactive: 0.11	inactive: -0.056	inactive: -0.239	inactive: -0.017	inactive: -0.054	inactive: -0.06	inactive: 0.098	inactive: -0.1	inactive: -0.063	–	–	–	–	–	–	–	–
DCAF4L2 (UniProt Q8NA75)	inactive: 0.131	inactive: -0.015	inactive: -0.023	–	inactive: -0.031	inactive: 0.178	inactive: -0.012	inactive: 0.068	inactive: -0.017	–	inactive: -0.041	inactive: -0.013	inactive: -0.007	inactive: -0.036	inactive: 0.073	inactive: -0.096	inactive: -0.01	inactive: -0.049	inactive: 0.138	inactive: 0.044
CTNNB1 (UniProt P35222)	inactive: -0.028	inactive: 0.263	inactive: -0.045	inactive: -0.056	inactive: -0.007	inactive: 0.081	inactive: -0.021	inactive: -0.018	inactive: -0.028	inactive: 0.172	inactive: -0.22	inactive: 0.129	inactive: -0.116	–	inactive: 0.003	inactive: -0.118	inactive: 0.09	inactive: -0.002	inactive: -0.134	inactive: 0.04
CXCL14 (UniProt O95715)	inactive: -0.249	–	–	–	–	–	inactive: -0.017	–	inactive: -0.114	–	–	–	inactive: -0.05	inactive: 0.114	–	inactive: -0.02	–	–	inactive: -0.097	inactive: 0.063
CSTF3 (UniProt Q12996)	inactive: 0.087	inactive: 0.019	inactive: -0.052	inactive: -0.026	inactive: 0.132	inactive: -0.012	inactive: 0.021	inactive: 0.014	inactive: 0.006	inactive: -0.072	inactive: -0.005	inactive: -0.05	inactive: 0	–	active: 0.262	inactive: -0.038	inactive: -0.005	inactive: -0.008	inactive: -0.029	inactive: 0.007
DAAM2 (UniProt Q86T65)	inactive: 0.079	–	inactive: 0.19	inactive: -0.113	inactive: 0.227	inactive: 0.12	inactive: -0.062	inactive: -0.023	inactive: 0.038	inactive: -0.138	–	inactive: -0.001	inactive: 0.172	inactive: -0.246	–	–	–	–	–	inactive: 0.022
CTSB (UniProt P07858)	inactive: -0.009	inactive: 0.013	inactive: -0.044	inactive: 0.011	active: -0.426	inactive: 0.037	inactive: -0.031	inactive: -0.069	inactive: 0.029	inactive: -0.059	inactive: -0.041	inactive: -0.007	inactive: 0.032	–	inactive: -0.053	inactive: -0.035	inactive: 0.022	inactive: -0.008	inactive: -0.025	inactive: 0.015
CTSZ (UniProt Q9UBR2)	inactive: 0.008	inactive: 0.053	inactive: -0.062	inactive: 0	active: -0.395	inactive: 0.082	inactive: -0.076	inactive: -0.004	inactive: 0.002	inactive: -0.009	inactive: -0.026	inactive: 0.152	inactive: -0.02	–	inactive: -0.036	inactive: -0.009	inactive: 0.025	inactive: -0.045	inactive: -0.017	inactive: 0.027
CT55 (UniProt Q8WUE5)	inactive: -0.071	inactive: -0.056	–	inactive: 0.023	inactive: -0.118	–	inactive: 0.006	–	inactive: -0.021	inactive: -0.02	inactive: -0.01	inactive: 0.096	inactive: 0.015	inactive: -0.136	inactive: 0.008	inactive: -0.003	inactive: 0.051	inactive: 0.044	inactive: -0.19	inactive: 0.05
CYP2S1 isoform 2 (UniProt Q96SQ9)	inactive: -0.044	inactive: -0.032	inactive: -0.132	–	inactive: 0	inactive: 0.044	inactive: -0.274	inactive: -0.006	inactive: 0.1	–	–	inactive: -0.008	inactive: -0.302	–	–	inactive: -0.057	–	–	inactive: -0.016	inactive: 0.051
CTBS (UniProt Q01459)	inactive: 0.073	inactive: -0.082	inactive: -0.035	inactive: 0.018	inactive: -0.151	inactive: -0.028	inactive: -0.009	inactive: 0.014	inactive: -0.065	inactive: 0.043	inactive: 0.093	inactive: 0.039	inactive: 0.067	–	inactive: -0.061	inactive: 0.206	inactive: -0.026	inactive: -0.017	inactive: 0.017	inactive: 0.03

Single entries from the entries so far.
CYP4V2 (UniProt Q6ZWL3) – log2 fold change (pinometostat): inactive: -0.017
CTNNB1 (UniProt P35222) – log2 fold change [5]: inactive: -0.018

Source: the supplement of paper PMC10849652
